Values from PubChem BioAssay AID1259254 (NCATS, 2017).
In all, the deposit lists about 59,000 reagents; shown is an unselected part. About 1,550 of all reagents (2.6%) count as active. 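G2 share is only a proxy for re-replication; each gene was hit by three separate siRNAs, and active genes were retested.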 Further read-outs or replicates are left out here. The record does not give: the amount of reagent.

Assay: 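Genome-wide screen for genes that prevent DNA re-replication in cancer cells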 (primary screen)
System: human HCT116 colorectal cancer cells
Knock-down reagent: single siRNA against human genes
Timing: 3 days
Measured: 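Nuclei stained with Hoechst and imaged; cell-cycle phase assigned by DNA content; G2 share scaled per plate, non-targeting siRNA 0%, GMNN siRNA 100%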
Direction: G2 robust z-score: higher = more G2 cells, more excess DNA replication
Hit rule: 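Active siRNAs have a G2 robust z of 5 or more median absolute deviations over the median, which in these data means about 38% or higher of GMNN control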

With knock-down of TGIF2 (TGFB induced factor homeobox 2) [SID160731664], the record shows G2 robust z-score 1.99; inactive.
For TGIF2 (TGFB induced factor homeobox 2) [SID160747064] the deposit lists G2 robust z-score 0.109; inactive.
Against TGIF2 (TGFB induced factor homeobox 2) [SID160747065], the values are G2 robust z-score -0.708; inactive.
Against TARM1 (T cell-interacting, activating receptor on myeloid cells 1) [SID160733425], the values are G2 robust z-score 0.982; inactive.
TARM1 (T cell-interacting, activating receptor on myeloid cells 1) [SID160768077] gave G2 robust z-score 1.39; inactive.
For TARM1 (T cell-interacting, activating receptor on myeloid cells 1) [SID160768078], the entry reads G2 robust z-score 1.02; inactive.
MPLKIP (M-phase specific PLK1 interacting protein) [SID160757489] gave G2 robust z-score -0.194; inactive.
Depletion of MPLKIP (M-phase specific PLK1 interacting protein) [SID160757491] resulted in: G2 robust z-score -0.0815; inactive.
After knock-down of MPLKIP (M-phase specific PLK1 interacting protein) [SID160757492], the screen gave G2 robust z-score 0.853; inactive.
Depletion of CRYBA2 (crystallin beta A2) [SID160748548] resulted in: G2 robust z-score -0.408; inactive.
CRYBA2 (crystallin beta A2) [SID160748559] gave G2 robust z-score 1.07; inactive.
Silencing of CRYBA2 (crystallin beta A2) [SID160748570] gave: G2 robust z-score -0.621; inactive.
Silencing of TPTE2 [SID160754503] resulted in: G2 robust z-score 1.7; inactive.
For TPTE2 [SID160754504], the values are G2 robust z-score 0.263; inactive.
For TPTE2 [SID160754505], the values are G2 robust z-score 0.387; inactive.
Against TFF2 (trefoil factor 2) [SID160717966], the values are G2 robust z-score -0.734; inactive.
Silencing of TFF2 (trefoil factor 2) [SID160717967] gave: G2 robust z-score -0.183; inactive.
Knock-down of TFF2 (trefoil factor 2) [SID160734210] came out at: G2 robust z-score -0.85; inactive.
After knock-down of TBK1 (TANK binding kinase 1) [SID160776034] the results were G2 robust z-score 0.139; inactive.
For TBK1 (TANK binding kinase 1) [SID160776044] the deposit lists G2 robust z-score 0.0861; inactive.
Knock-down of TBK1 (TANK binding kinase 1) [SID160776054] came out at: G2 robust z-score -1; inactive.
Knock-down of CMTM2 (CKLF like MARVEL transmembrane domain containing 2) [SID160758340] gave: G2 robust z-score 0.709; inactive.
Depletion of CMTM2 (CKLF like MARVEL transmembrane domain containing 2) [SID160758341] resulted in: G2 robust z-score -0.637; inactive.
Against CMTM2 (CKLF like MARVEL transmembrane domain containing 2) [SID160758342] the deposit lists G2 robust z-score -0.539; inactive.

Targets listed so far whose gene name begins with C or c:
CRYBA2 (crystallin beta A2) [SID160748548] — G2 robust z-score = -0.408; Call = inactive
CRYBA2 (crystallin beta A2) [SID160748559] — G2 robust z-score = 1.07; Call = inactive
CRYBA2 (crystallin beta A2) [SID160748570] — G2 robust z-score = -0.621; Call = inactive
CMTM2 (CKLF like MARVEL transmembrane domain containing 2) [SID160758340] — G2 robust z-score = 0.709; Call = inactive
CMTM2 (CKLF like MARVEL transmembrane domain containing 2) [SID160758341] — G2 robust z-score = -0.637; Call = inactive
CMTM2 (CKLF like MARVEL transmembrane domain containing 2) [SID160758342] — G2 robust z-score = -0.539; Call = inactive
